Data set [1] deals with T1, TIA1 (human (K562 cells)) (UniProt P31483).
T1 sequence (looked up, limits assumed): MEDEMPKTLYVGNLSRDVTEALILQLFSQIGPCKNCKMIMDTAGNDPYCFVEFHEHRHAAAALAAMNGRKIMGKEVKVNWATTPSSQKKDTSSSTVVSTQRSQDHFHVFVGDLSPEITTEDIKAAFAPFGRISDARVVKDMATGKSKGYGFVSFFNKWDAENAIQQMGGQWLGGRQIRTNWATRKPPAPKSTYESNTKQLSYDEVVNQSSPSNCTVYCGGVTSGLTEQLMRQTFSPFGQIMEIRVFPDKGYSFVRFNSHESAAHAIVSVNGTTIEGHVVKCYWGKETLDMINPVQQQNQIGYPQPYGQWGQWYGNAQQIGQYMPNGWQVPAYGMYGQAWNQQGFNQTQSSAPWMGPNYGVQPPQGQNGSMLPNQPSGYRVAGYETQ
The data set is described as follows: pull-down. As to conditions: K562 lysate in 50 mM Tris-HCl pH 7.5, 150 mM NaCl, 1 mM EDTA, 1% Triton X-100, 0.5 mM DTT, 0.1% sodium deoxycholate, 4 °C, protein in an extract.

Data set [2] addresses T2, SND1 (human (K562 cells)) (UniProt Q7KZF4).
T2 sequence (looked up, limits assumed): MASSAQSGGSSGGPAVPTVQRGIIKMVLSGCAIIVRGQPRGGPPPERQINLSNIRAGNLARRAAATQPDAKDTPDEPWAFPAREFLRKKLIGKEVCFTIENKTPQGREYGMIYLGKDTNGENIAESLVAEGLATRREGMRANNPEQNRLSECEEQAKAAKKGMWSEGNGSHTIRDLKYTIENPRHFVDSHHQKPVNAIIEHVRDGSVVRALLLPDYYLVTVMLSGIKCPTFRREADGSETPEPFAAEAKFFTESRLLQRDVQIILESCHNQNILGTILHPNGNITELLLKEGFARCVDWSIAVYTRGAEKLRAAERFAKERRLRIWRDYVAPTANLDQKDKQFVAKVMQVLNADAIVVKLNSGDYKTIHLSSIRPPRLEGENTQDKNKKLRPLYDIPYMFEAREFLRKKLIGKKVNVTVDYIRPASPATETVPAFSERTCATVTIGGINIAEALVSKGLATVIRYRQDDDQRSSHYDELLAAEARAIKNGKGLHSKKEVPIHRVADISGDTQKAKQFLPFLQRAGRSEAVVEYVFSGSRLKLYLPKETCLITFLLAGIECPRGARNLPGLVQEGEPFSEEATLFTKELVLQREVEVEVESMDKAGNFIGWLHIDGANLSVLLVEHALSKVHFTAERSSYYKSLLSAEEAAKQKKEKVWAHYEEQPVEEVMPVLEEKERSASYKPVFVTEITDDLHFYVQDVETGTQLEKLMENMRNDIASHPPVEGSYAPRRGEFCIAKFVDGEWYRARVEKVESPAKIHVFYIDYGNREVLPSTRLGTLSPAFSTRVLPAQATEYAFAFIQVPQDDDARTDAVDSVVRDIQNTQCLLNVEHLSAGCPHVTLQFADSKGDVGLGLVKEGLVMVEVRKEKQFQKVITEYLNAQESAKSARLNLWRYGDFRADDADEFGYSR
Nature of the data set: pull-down. As to conditions: K562 lysate in 50 mM Tris-HCl pH 7.5, 150 mM NaCl, 1 mM EDTA, 1% Triton X-100, 0.5 mM DTT, 0.1% sodium deoxycholate, 4 °C, protein in an extract.

For at least one entry, the source does not settle the construct or the ends of the probe. Where cells or extracts were used, other partners may take part. For some assays here: A negative result means that nothing was seen under these conditions. Protein sequences can lack the tags named with them. A weaker result is weaker than the reference pair of the same experiment. For some assays here: At least one verdict rests on a figure or table, not on a statement of the authors.

Turning to “GCCUCCGCCUCACACAAAACUGCGGCGCGGGGCAAGGUGUGCGGGCGG [target2_mut1 (CANX HAR mutant), single-stranded]”, the binding result in data set [1] (snap-cooled, binding stated as disrupted) is listed as “no binding”.
For the sequence “UAACUUGGACUAGUGUAACUCCUUGAGCCAUGCUGUCUAGUCUU [SND1_target (EIF1), snap-cooled, single-stranded]”, in data set [2] (fast-cooled (snap-cooled)), the binding result is listed as “binds more weakly”.
Turning to “UAACUUGGACUAGUGUAACUCCUUGAGCCAUGCUGUCUAGUCUU [SND1_target (EIF1), slow-cooled, folded]”, the binding result in data set [2] (slow-cooled (refolded)) is listed as “binds”.
Take “GCCUCCGCCUCUCUCUUUACUGCGGCGCGGGGCAAGGUGUGCGGGCGG [TIA1_target2_WT (CANX), single-stranded]”: the binding result in data set [1] (single-stranded conformation) is recorded as “binds”.
As for “GCCUCCGCCUCUCUCUUUACUGCGGCGCGGGGCAAGGAAAGAGAGCGG [target2_mut2 (CANX distal mutant), single-stranded]”, the binding result in data set [1] (snap-cooled, diminished only under pairing conditions) is listed as “binds”.
Consider “UAGGAAUGUGAAGCCAGAGGUUUCGGAUUCGUGACAU [TIA1_target1 (SLC35D2), snap-cooled, single-stranded]”, for which, in data set [1] (fast-cooled (snap-cooled)), the binding result is listed as “binds”.
“UAGGAAUGUGAAGCCAGAGGUUUCGGAUUCGUGACAU [TIA1_target1 (SLC35D2), folded]”: the binding result in data set [1] (slow-cooled (refolded)) is on record as “binds more weakly”.
Regarding “GCCUCCGCCUCUCUCUUUACUGCGGCGCGGGGCAAGGAAAGAGAGCGG [target2_mut2 (CANX distal mutant), folded]”, the binding result in data set [1] (refolded, binding stated as diminished) is “binds more weakly”.

Source of the values: article PMC7900654.
